# The supplement of paper PMC8728848
# The list shows a part of the results.
# Tests used:
# Test in all cases: glycan array binding signal (z-score within array); higher = stronger binding
# Settings in all cases: glycan notation: IUPAC condensed, linker removed
# GalNAc(b1-3)Gal = biological target: GalNAc(b1-3)Gal
# Outline: (§1)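 The Consortium for Functional Glycomics database supplied 3228 glycan arrays, of which those lacking an available protein sequence were dropped. The binding signal, a within-array Z-score, was averaged across arrays of the same protein sequence and across linkers. Negative scores can be read as non-binding.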
# [1] = biological target: GalNAc(b1-3)Gal(a1-4)Gal(b1-4)GlcNAc
# Outline: as §1
# [2] = biological target: GalNAc(b1-3)Gal(a1-4)Gal(b1-4)GlcNAc(b1-3)Gal(b1-4)Glc
# Outline: as §1
# [3] = biological target: GalNAc(b1-3)Gal(a1-6)Gal(b1-4)Glc
# Outline: as §1
# GalNAc(b1-3)GalNAc = biological target: GalNAc(b1-3)GalNAc
# Outline: as §1
# GalNAc(b1-3)GlcNAc = biological target: GalNAc(b1-3)GlcNAc
# Outline: as §1
# GalNAc(b1-4)Gal(b1-4)Glc = biological target: GalNAc(b1-4)Gal(b1-4)Glc
# Outline: as §1
# GalNAc(b1-4)GlcNAc = biological target: GalNAc(b1-4)GlcNAc
# Outline: as §1
# [4] = biological target: GalNAc(b1-4)GlcNAc(b1-2)Man
# Outline: as §1
# [5] = biological target: GalNAc(b1-4)GlcNAc(b1-2)Man(a1-3)[GalNAc(b1-4)GlcNAc(b1-2)Man(a1-6)]Man(b1-4)GlcNAc(b1-4)GlcNAc
# Outline: as §1
# [6] = biological target: GalNAc(b1-4)GlcNAc(b1-3)GalNAc(b1-4)GlcNAc
# Outline: as §1
# GalNAc(b1-4)GlcNAc6S = biological target: GalNAc(b1-4)GlcNAc6S
# Outline: as §1
# GalNAc(b1-6)GalNAc = biological target: GalNAc(b1-6)GalNAc
# Outline: as §1
# GalNAc3S(b1-4)GlcNAc = biological target: GalNAc3S(b1-4)GlcNAc
# Outline: as §1
# GalNAc3S(b1-4)GlcNAc3S = biological target: GalNAc3S(b1-4)GlcNAc3S
# Outline: as §1
# [7] = biological target: GalNAc3S(b1-4)[Fuc(a1-3)]GlcNAc
# Outline: as §1
# GalNAc4S6S(b1-4)GlcNAc = biological target: GalNAc4S6S(b1-4)GlcNAc
# Outline: as §1
# GalNAc6S(b1-4)GlcNAc = biological target: GalNAc6S(b1-4)GlcNAc
# Outline: as §1
# Glc(a1-4)Glc = biological target: Glc(a1-4)Glc
# Outline: as §1
# [8] = biological target: Glc(a1-4)Glc(a1-4)Glc(a1-4)Glc
# Outline: as §1
# Glc(a1-6)Glc(a1-6)Glc = biological target: Glc(a1-6)Glc(a1-6)Glc
# Outline: as §1
# [9] = biological target: Glc(a1-6)Glc(a1-6)Glc(a1-6)Glc
# Outline: as §1
# Glc(b1-4)Glc = biological target: Glc(b1-4)Glc
# Outline: as §1
# Glc(b1-6)Glc = biological target: Glc(b1-6)Glc
# Outline: as §1
# GlcA(b1-3)Gal = biological target: GlcA(b1-3)Gal
# Outline: as §1
# GlcA(b1-3)GlcNAc = biological target: GlcA(b1-3)GlcNAc
# Outline: as §1
# GlcA(b1-6)Gal = biological target: GlcA(b1-6)Gal
# Outline: as §1
# [10] = biological target: GlcA3S(b1-3)Gal(b1-4)GlcNAc(b1-2)Man
# Outline: as §1
# [11] = biological target: GlcA3S(b1-3)Gal(b1-4)GlcNAc(b1-3)Gal(b1-4)Glc
# Outline: as §1
# [12] = biological target: GlcNAc(a1-3)Gal(b1-4)GlcNAc
# Outline: as §1
# [13] = biological target: GlcNAc(a1-4)Gal(b1-3)GlcNAc
# Outline: as §1
# [14] = biological target: GlcNAc(a1-4)Gal(b1-4)GalNAc
# Outline: as §1
# [15] = biological target: GlcNAc(a1-4)Gal(b1-4)GlcNAc
# Outline: as §1
# [16] = biological target: GlcNAc(a1-4)Gal(b1-4)GlcNAc(b1-3)Gal(b1-4)Glc
# Outline: as §1
# [17] = biological target: GlcNAc(a1-4)Gal(b1-4)GlcNAc(b1-3)Gal(b1-4)GlcNAc
# Outline: as §1
# [18] = biological target: GlcNAc(a1-4)Gal(b1-4)GlcNAc(b1-3)Gal(b1-4)GlcNAc(b1-3)Gal(b1-4)GlcNAc
# Outline: as §1
# [19] = biological target: GlcNAc(a1-4)Gal(b1-4)GlcNAc(b1-3)Gal(b1-4)[Fuc(a1-3)]GlcNAc(b1-3)Gal(b1-4)[Fuc(a1-3)]GlcNAc
# Outline: as §1
# [20] = biological target: GlcNAc(a1-6)Gal(b1-4)GlcNAc
# Outline: as §1
binder,measurement,setting,value
TAL6-4LysM (Trichoderma atroviride) (protein) AADSIPSISPTGIITPTPTQSGMVSNCNKFYDVHSNDGCSAIASSQHVDLSSLYKWNPAIKTDCSGLQASVYVCIGILTTSMSTTSKLPTTTSKPSTTSKPPTGITTPTPTQSGMVKNCNKFYDVHSGDGCSAIASSQKVNLSSFYLWNPAVKTDCSGLQASVFVCIGTLTTSMSTTTSKLPTTTSKPSTTSKPPTGIITPTPTQNGMVKNCNKFYDVHSGDGCSAIASSQKVNLSSFYLWNPAVKTDCSGLQASVFVCVGTATTTTAAGITTPTPTQSGMVSGCNKFYDVHAGDGCSAIASSQKIALSSLYKWNPAVKTDCSGLQASVYICIGVGNAAAARVTGALEQKLISEEDLNSAVDHHHHHH,glycan array binding signal (z-score),GalNAc(b1-3)Gal,-0.639
same,glycan array binding signal (z-score),[1],0.963
same,glycan array binding signal (z-score),[2],0.34
same,glycan array binding signal (z-score),[3],-0.436
same,glycan array binding signal (z-score),GalNAc(b1-3)GalNAc,1.31
same,glycan array binding signal (z-score),GalNAc(b1-3)GlcNAc,-0.707
same,glycan array binding signal (z-score),GalNAc(b1-4)Gal(b1-4)Glc,0.01
same,glycan array binding signal (z-score),GalNAc(b1-4)GlcNAc,1.41
same,glycan array binding signal (z-score),[4],1.31
same,glycan array binding signal (z-score),[5],-0.647
same,glycan array binding signal (z-score),[6],-0.378
same,glycan array binding signal (z-score),GalNAc(b1-4)GlcNAc6S,0.091
same,glycan array binding signal (z-score),GalNAc(b1-6)GalNAc,-1.1
same,glycan array binding signal (z-score),GalNAc3S(b1-4)GlcNAc,-0.088
same,glycan array binding signal (z-score),GalNAc3S(b1-4)GlcNAc3S,-1.07
same,glycan array binding signal (z-score),[7],-0.53
same,glycan array binding signal (z-score),GalNAc4S6S(b1-4)GlcNAc,1.16
same,glycan array binding signal (z-score),GalNAc6S(b1-4)GlcNAc,-0.544
same,glycan array binding signal (z-score),Glc(a1-4)Glc,-0.584
same,glycan array binding signal (z-score),[8],-0.205
same,glycan array binding signal (z-score),Glc(a1-6)Glc(a1-6)Glc,0.264
same,glycan array binding signal (z-score),[9],-2.01
same,glycan array binding signal (z-score),Glc(b1-4)Glc,-1.29
same,glycan array binding signal (z-score),Glc(b1-6)Glc,-1.85
same,glycan array binding signal (z-score),GlcA(b1-3)Gal,-0.253
same,glycan array binding signal (z-score),GlcA(b1-3)GlcNAc,-0.371
same,glycan array binding signal (z-score),GlcA(b1-6)Gal,-0.73
same,glycan array binding signal (z-score),[10],-1.83
same,glycan array binding signal (z-score),[11],1.02
same,glycan array binding signal (z-score),[12],1.16
same,glycan array binding signal (z-score),[13],-0.119
same,glycan array binding signal (z-score),[14],-0.21
same,glycan array binding signal (z-score),[15],0.134
same,glycan array binding signal (z-score),[16],-0.137
same,glycan array binding signal (z-score),[17],0.336
same,glycan array binding signal (z-score),[18],-0.674
same,glycan array binding signal (z-score),[19],0.09
same,glycan array binding signal (z-score),[20],-1.04

# 10 consecutive records already listed, for reference:
binder,measurement,setting,value
TAL6-4LysM (Trichoderma atroviride) (protein) AADSIPSISPTGIITPTPTQSGMVSNCNKFYDVHSNDGCSAIASSQHVDLSSLYKWNPAIKTDCSGLQASVYVCIGILTTSMSTTSKLPTTTSKPSTTSKPPTGITTPTPTQSGMVKNCNKFYDVHSGDGCSAIASSQKVNLSSFYLWNPAVKTDCSGLQASVFVCIGTLTTSMSTTTSKLPTTTSKPSTTSKPPTGIITPTPTQNGMVKNCNKFYDVHSGDGCSAIASSQKVNLSSFYLWNPAVKTDCSGLQASVFVCVGTATTTTAAGITTPTPTQSGMVSGCNKFYDVHAGDGCSAIASSQKIALSSLYKWNPAVKTDCSGLQASVYICIGVGNAAAARVTGALEQKLISEEDLNSAVDHHHHHH,glycan array binding signal (z-score),[8],-0.205
same,glycan array binding signal (z-score),Glc(a1-6)Glc(a1-6)Glc,0.264
same,glycan array binding signal (z-score),[9],-2.01
same,glycan array binding signal (z-score),Glc(b1-4)Glc,-1.29
same,glycan array binding signal (z-score),Glc(b1-6)Glc,-1.85
same,glycan array binding signal (z-score),GlcA(b1-3)Gal,-0.253
same,glycan array binding signal (z-score),GlcA(b1-3)GlcNAc,-0.371
same,glycan array binding signal (z-score),GlcA(b1-6)Gal,-0.73
same,glycan array binding signal (z-score),[10],-1.83
same,glycan array binding signal (z-score),[11],1.02
